Reference: patent US20030027152, “Generation of diagnostic tools to assay the human LHX3/P-LIM/LIM-3 factor” (Indiana University Advanced Research and Technology …, published 2003)
The comparison behind a weaker result is the experiment's own reference, which may not be listed here. Protein sequences can lack the tags named with them.

Sequences of proteins named here, by UniProt entry; tags and fusion partners are left off. A change or cut given only in a name is not applied to a line headed by its entry.
UniProt Q9UBR4: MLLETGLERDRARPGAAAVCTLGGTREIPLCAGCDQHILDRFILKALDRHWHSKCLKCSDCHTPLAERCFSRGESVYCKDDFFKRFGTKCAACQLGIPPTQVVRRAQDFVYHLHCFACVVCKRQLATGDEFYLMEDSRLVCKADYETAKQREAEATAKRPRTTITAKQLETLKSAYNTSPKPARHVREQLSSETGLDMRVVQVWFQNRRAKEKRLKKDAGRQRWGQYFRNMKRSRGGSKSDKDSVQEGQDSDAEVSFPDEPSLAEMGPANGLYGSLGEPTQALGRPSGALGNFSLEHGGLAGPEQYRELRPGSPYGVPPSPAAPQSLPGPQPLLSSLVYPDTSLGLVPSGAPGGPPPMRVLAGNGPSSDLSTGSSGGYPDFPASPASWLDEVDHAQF

What was measured:
Assay in all cases: EMSA
[1] = target: T1, GST-pLhx3 (Sus scrofa) (UniProt O97581); conditions: weak binding, seen on longer exposure; LIM domains suppress binding; purified recombinant protein; protein details: N-terminal GST (pGEX-KT); label: radiolabel
T1 sequence (limits assumed): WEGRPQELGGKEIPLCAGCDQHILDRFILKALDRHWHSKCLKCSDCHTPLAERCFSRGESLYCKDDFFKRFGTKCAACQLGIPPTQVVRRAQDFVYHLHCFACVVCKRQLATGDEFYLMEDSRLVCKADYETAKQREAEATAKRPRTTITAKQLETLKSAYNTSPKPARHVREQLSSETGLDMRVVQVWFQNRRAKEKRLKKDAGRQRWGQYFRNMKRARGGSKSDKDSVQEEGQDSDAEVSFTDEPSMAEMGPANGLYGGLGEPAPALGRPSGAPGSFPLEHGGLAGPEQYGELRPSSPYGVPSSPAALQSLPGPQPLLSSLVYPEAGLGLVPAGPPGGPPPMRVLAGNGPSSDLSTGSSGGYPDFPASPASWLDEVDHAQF

[2] = target: T2, GST-hLhx3b (Homo sapiens) (UniProt Q9UBR4); conditions: purified recombinant protein, protein details: N-terminal GST (pGEX-KT), label: radiolabel
T2 sequence (limits assumed): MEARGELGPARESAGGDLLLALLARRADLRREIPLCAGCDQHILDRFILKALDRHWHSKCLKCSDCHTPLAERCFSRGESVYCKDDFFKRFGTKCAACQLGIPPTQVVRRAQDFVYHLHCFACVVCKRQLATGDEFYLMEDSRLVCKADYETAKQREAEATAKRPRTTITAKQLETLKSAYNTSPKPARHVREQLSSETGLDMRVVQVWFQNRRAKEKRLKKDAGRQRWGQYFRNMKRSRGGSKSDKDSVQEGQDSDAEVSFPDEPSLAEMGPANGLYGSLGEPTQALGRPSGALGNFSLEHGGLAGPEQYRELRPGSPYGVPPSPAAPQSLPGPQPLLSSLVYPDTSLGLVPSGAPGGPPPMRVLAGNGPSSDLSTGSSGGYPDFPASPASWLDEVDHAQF

[3] = target: T3, hLhx3b (Homo sapiens) (UniProt Q9UBR4); conditions: less effective than hLhx3a, protein translated in vitro, label: radiolabel
T3 sequence (limits assumed): T2 sequence (limits assumed)

[4] = target: T4, hLhx3b-myc (Homo sapiens) (UniProt Q9UBR4); conditions: less effective than hLhx3a-myc; protein translated in vitro; protein details: C-terminal myc (pcDNA3.1/Myc-His); label: radiolabel
T4 sequence (limits assumed): T2 sequence (limits assumed)

ACATTAGGTACTTAGCTAATTAAATGTG (double strand) [porcine αGSU -351/-324 wild type]
binding result [1]: binds more weakly

ACATTAGGTACTTAGCTAATTAAATGTG (double strand) [αGSU -350/-323 (PGBE)]
binding result ([2]; less effective than GST-hLhx3a): binds more weakly
binding result ([3]; in vitro translated): binds more weakly

CAGAAAATTAATTAATTGTAA (double strand) [Lhx3 consensus binding site]
binding result [4]: binds more weakly
binding result [2]: binds more weakly
binding result [3]: binds more weakly
